This passage reports binding results from article PMC5543739.

These are yes or no findings as the source states them, for the method shown. Binding seen in cells or lysates may run through a third protein.

This assay addresses T1, NFATc2 (nuclear factor of activated T-cells c2), endogenous in PaTu 8988t cells (human (endogenous in PaTu 8988t)), Q13469.
T1 chain: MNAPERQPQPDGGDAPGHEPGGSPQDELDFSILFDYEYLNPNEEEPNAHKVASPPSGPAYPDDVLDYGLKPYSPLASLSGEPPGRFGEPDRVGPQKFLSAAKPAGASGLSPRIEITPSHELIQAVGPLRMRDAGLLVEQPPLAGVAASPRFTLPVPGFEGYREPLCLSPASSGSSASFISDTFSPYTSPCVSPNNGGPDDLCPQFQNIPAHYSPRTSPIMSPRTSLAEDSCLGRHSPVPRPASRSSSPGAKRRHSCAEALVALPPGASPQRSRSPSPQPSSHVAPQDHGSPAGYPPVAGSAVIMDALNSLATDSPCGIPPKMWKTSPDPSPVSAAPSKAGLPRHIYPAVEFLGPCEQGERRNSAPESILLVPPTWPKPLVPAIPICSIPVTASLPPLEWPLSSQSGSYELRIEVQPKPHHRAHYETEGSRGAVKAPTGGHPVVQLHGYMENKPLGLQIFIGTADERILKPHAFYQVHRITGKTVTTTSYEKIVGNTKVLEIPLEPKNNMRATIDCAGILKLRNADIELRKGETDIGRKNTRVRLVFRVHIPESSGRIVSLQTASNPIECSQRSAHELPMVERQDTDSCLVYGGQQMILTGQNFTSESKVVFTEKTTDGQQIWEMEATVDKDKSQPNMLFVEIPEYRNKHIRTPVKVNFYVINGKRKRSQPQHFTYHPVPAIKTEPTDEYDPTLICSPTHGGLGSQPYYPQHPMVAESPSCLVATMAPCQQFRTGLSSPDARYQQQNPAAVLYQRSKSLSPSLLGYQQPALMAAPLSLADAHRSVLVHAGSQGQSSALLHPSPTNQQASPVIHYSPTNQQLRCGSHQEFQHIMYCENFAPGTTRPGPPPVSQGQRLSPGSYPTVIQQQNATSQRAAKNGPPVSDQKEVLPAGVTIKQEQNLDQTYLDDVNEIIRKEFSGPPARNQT
In words: co-IP; 500 ug PaTu 8988t lysate immunoprecipitated with anti-NFATc2 antibody and protein G or A agarose, blotted for Sp1 and MEF 2A; cells serum-free 3 h, then 0.5 uM Ionomycin for 0, 10, 60 min. The settings on record: remark: other sources report otherwise.

B1: MEF 2A (myocyte enhancer factor 2A), endogenous in PaTu 8988t cells, Q02078 1-507 (protein)
chain: MGRKKIQITRIMDERNRQVTFTKRKFGLMKKAYELSVLCDCEIALIIFNSSNKLFQYASTDMDKVLLKYTEYNEPHESRTNSDIVEALNKKEHRGCDSPDPDTSYVLTPHTEEKYKKINEEFDNMMRNHKIAPGLPPQNFSMSVTVPVTSPNALSYTNPGSSLVSPSLAASSTLTDSSMLSPPQTTLHRNVSPGAPQRPPSTGNAGGMLSTTDLTVPNGAGSSPVGNGFVNSRASPNLIGATGANSLGKVMPTKSPPPPGGGNLGMNSRKPDLRVVIPPSSKGMMPPLSEEEELELNTQRISSSQATQPLATPVVSVTTPSLPPQGLVYSAMPTAYNTDYSLTSADLSALQGFNSPGMLSLGQVSAWQQHHLGQAALSSLVAGGQLSQGSNLSINTNQNISIKSEPISPPRDRMTPSGFQQQQQQQQQQQPPPPPQPQPQPPQPQPRQEMGRSPVDSLSSSSSSYDGSDREDPRGDFHSPIVLGRPPNTEDRESPSVKRMRMDAWVT
On to B1, for which the binding entry was “no binding”.
